In publication PMC11444514 one finds binding data, which are given here for 2 substances.

Chains of the proteins cited; added tags and fusions are not shown.
UniProt P35579: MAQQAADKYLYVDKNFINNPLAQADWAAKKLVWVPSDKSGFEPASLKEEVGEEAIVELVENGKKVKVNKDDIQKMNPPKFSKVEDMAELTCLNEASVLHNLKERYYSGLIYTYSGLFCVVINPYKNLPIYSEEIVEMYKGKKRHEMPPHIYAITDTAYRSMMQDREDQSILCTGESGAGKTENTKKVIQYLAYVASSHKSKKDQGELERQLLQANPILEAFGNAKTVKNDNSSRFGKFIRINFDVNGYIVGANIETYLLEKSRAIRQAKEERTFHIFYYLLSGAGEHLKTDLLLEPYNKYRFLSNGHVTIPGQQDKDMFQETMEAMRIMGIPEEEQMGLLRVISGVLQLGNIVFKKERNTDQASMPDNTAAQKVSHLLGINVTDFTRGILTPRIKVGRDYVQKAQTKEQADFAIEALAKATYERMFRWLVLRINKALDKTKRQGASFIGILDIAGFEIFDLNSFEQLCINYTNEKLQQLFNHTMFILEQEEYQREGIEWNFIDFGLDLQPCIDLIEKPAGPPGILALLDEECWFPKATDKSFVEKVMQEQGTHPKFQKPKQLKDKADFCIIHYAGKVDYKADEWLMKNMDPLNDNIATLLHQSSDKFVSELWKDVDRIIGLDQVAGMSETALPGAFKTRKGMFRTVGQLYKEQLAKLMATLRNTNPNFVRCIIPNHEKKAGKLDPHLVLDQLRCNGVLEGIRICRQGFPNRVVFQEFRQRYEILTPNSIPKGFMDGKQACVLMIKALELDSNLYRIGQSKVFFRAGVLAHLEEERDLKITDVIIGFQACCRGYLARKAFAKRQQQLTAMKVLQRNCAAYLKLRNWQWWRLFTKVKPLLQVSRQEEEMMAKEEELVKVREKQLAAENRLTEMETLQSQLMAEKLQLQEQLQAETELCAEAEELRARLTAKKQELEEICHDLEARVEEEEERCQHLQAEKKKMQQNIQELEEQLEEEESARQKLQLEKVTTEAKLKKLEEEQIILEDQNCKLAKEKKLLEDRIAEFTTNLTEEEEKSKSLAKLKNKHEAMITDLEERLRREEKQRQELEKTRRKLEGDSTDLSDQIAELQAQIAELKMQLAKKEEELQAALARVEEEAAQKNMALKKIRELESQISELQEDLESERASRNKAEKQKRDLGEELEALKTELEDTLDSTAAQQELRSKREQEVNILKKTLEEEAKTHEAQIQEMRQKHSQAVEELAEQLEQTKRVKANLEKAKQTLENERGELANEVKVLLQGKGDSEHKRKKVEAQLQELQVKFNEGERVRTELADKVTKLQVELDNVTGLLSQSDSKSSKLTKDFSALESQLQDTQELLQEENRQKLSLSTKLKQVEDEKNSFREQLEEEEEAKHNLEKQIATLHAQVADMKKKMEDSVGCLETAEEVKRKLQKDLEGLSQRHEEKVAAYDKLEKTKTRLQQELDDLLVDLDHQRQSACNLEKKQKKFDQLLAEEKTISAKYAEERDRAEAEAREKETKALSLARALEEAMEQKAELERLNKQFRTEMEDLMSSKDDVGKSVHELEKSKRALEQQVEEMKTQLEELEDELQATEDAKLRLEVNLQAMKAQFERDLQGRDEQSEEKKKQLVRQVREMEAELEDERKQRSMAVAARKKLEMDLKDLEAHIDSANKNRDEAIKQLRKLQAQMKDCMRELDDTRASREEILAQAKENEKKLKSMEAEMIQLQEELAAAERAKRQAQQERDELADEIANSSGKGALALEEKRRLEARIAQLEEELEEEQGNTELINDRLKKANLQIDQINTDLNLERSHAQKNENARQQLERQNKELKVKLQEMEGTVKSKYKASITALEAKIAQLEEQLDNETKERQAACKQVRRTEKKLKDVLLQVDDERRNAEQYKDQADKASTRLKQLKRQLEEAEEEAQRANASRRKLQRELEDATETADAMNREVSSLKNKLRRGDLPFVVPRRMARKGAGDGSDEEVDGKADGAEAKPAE
UniProt O14950: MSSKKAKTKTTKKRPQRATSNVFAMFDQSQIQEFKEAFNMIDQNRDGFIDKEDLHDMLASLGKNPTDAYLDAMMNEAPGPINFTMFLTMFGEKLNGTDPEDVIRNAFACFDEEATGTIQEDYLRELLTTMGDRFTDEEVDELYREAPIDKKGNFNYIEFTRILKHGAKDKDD

Results are given in words; binding and its absence hold for the method and conditions named. Binding seen in cells or lysates may run through a third protein. These calls come from enrichment with a bait or labelling near it, and not all partners need be listed.

In this assay the target is T1, BPP43_05035 (Brachyspira pilosicoli strain P43/6/78).
T1 sequence: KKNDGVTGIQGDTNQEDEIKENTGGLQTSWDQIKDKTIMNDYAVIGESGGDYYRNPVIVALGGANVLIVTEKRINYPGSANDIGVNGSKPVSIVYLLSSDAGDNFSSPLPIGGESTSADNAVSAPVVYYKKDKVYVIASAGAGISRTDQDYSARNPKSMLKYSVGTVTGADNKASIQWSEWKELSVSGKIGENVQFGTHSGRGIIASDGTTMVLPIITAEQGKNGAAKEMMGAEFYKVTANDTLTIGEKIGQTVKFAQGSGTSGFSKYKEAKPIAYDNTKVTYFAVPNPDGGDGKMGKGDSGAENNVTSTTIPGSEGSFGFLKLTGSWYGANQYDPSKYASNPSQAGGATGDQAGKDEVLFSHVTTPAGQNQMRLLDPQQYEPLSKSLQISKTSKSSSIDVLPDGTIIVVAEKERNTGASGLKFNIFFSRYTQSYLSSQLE
The assay is described as follows: affinity purification with mass spectrometry; 100 µg purified recombinant BPP43_05035 incubated with 1 mL lysate of differentiated Caco-2 cells (25 mM Tris-HCl, 150 mM NaCl, 1% Triton X-100, pH 7.4) overnight at 4°C; precipitated with BPP43_05035-specific rabbit antibody and sheep anti-rabbit IgG Dynabeads; bands cut from the SDS-PAGE gel and identified by mass spectrometry; controls: pre-serum and unconjugated beads; only the target purified.

Consider “Myosin-9 (MYH9) (from UniProt P35579 1-1960)”, for which the binding entry was “binds”.

For “Myosin regulatory light-chain 12B (MYL12B, MLC2) (from UniProt O14950 1-172)”, the binding entry was “binds”.
